{"source": "PubChem BioAssay AID1671195 – Yale University – 2021", "aim": "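Knockdowns that increase or decrease uptake of fluorescent LDL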 (primary screen)", "cell system": "human Huh7 hepatoma cells", "reagents": "siRNA pool against human genes, 18 nM", "time to read-out": "about 2 to 2.5 days of knockdown, then 8 h LDL uptake", "challenge": "DiI-labelled LDL at 30 µg/ml for 8 h, in lipoprotein-deficient serum medium", "read-out": "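Fluorescent LDL signal imaged in cells, scaled to the plate median, robust z-score for each replicate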", "reading the numbers": "robust z-score: higher = more LDL uptake after knockdown", "call rule": "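a gene counts as active if at least two replicate z-scores exceed ±2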", "note": "In all, the deposit lists about 22,000 reagents; shown is a part drawn at random. About 1,510 of them (6.9%) count as active. 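Active includes knockdowns raising or lowering LDL uptake; positive z-scores mean more uptake, negative mean less.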 No sequences are given here."}
{"target": "CPSF4 (cleavage and polyadenylation specific factor 4)", "robust z-score, replicate 1": 1.49, "robust z-score, replicate 2": 0.371, "robust z-score, replicate 3": 1.08, "Outcome": "inactive"}
{"target": "ZCCHC10 (zinc finger CCHC-type containing 10)", "robust z-score, replicate 1": 1.42, "robust z-score, replicate 2": 0.782, "robust z-score, replicate 3": 2.18, "Outcome": "inactive"}
{"target": "FGF5 (fibroblast growth factor 5)", "robust z-score, replicate 1": -1.12, "robust z-score, replicate 2": -0.378, "robust z-score, replicate 3": -0.734, "Outcome": "inactive"}
{"target": "SLAMF1 (signaling lymphocytic activation molecule family member 1)", "robust z-score, replicate 1": -0.66, "robust z-score, replicate 2": -0.67, "robust z-score, replicate 3": -0.311, "Outcome": "inactive"}
{"target": "GIP (gastric inhibitory polypeptide)", "robust z-score, replicate 1": -0.836, "robust z-score, replicate 2": -0.293, "robust z-score, replicate 3": -0.00356, "Outcome": "inactive"}
{"target": "TECTB (tectorin beta)", "robust z-score, replicate 1": -0.0152, "robust z-score, replicate 2": 0.104, "robust z-score, replicate 3": 1.19, "Outcome": "inactive"}
{"target": "PDGFA-DT (PDGFA divergent transcript)", "robust z-score, replicate 1": -0.463, "robust z-score, replicate 2": -0.84, "robust z-score, replicate 3": -0.56, "Outcome": "inactive"}
{"target": "STAC2 (SH3 and cysteine rich domain 2)", "robust z-score, replicate 1": 0.0335, "robust z-score, replicate 2": 0.0643, "robust z-score, replicate 3": 0.0781, "Outcome": "inactive"}
{"target": "MTCP1 (mature T cell proliferation 1)", "robust z-score, replicate 1": -0.932, "robust z-score, replicate 2": -1.83, "robust z-score, replicate 3": -1.03, "Outcome": "inactive"}
{"target": "POLR1C (RNA polymerase I and III subunit C)", "robust z-score, replicate 1": 0.567, "robust z-score, replicate 2": 0.639, "robust z-score, replicate 3": 0.217, "Outcome": "inactive"}
{"target": "LINC02874 (long independently transcribed non-coding RNA 2874)", "robust z-score, replicate 1": 1.67, "robust z-score, replicate 2": 2.13, "robust z-score, replicate 3": 1.74, "Outcome": "inactive"}
{"target": "ERICH2 (glutamate rich 2)", "robust z-score, replicate 1": 0.21, "robust z-score, replicate 2": 0.0494, "robust z-score, replicate 3": 0.341, "Outcome": "inactive"}
{"target": "HNRNPA0 (heterogeneous nuclear ribonucleoprotein A0)", "robust z-score, replicate 1": -0.587, "robust z-score, replicate 2": -0.672, "robust z-score, replicate 3": -0.116, "Outcome": "inactive"}
{"target": "SAA2 (serum amyloid A2)", "robust z-score, replicate 1": 1.12, "robust z-score, replicate 2": -0.0735, "robust z-score, replicate 3": -0.125, "Outcome": "inactive"}
{"target": "TPPP3 (tubulin polymerization promoting protein family member 3)", "robust z-score, replicate 1": 0.312, "robust z-score, replicate 2": -0.286, "robust z-score, replicate 3": -1.76, "Outcome": "inactive"}
{"target": "KRTCAP2 (keratinocyte associated protein 2)", "robust z-score, replicate 1": -0.953, "robust z-score, replicate 2": -0.54, "robust z-score, replicate 3": -0.619, "Outcome": "inactive"}

2 entries from above, set out differently:
| target | robust z-score, replicate 1 | robust z-score, replicate 2 | robust z-score, replicate 3 | Outcome |
| --- | --- | --- | --- | --- |
| HNRNPA0 (heterogeneous nuclear ribonucleoprotein A0) | -0.587 | -0.672 | -0.116 | inactive |
| SAA2 (serum amyloid A2) | 1.12 | -0.0735 | -0.125 | inactive |
